From PubChem BioAssay AID504834 (National Center for Advancing Translational Sciences (NCATS), 2011)
Hit rate of the full screen: of about 320,000 compounds, about 22,000 (6.9%) were called active. The shares of active, inactive and inconclusive entries below differ from those in the screen. Calls follow the shape of the dose curve; as a rule, active = well fitted inhibition curve with a large enough effect; inconclusive = small, poorly fitted or top-dose-only effect, or another doubt; inactive = no such curve, though single readings can be large or run the other way. Potencies of inconclusive entries are doubtful fits and often do not repeat.

assay: Primary qHTS for delayed death inhibitors of the malarial parasite plastid, 96 hour incubation; settings: P. falciparum luciferase reporter growth; series mostly up to 28.7 µM
How it was run: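 Compounds incubated with erythrocytes infected by luciferase-expressing P. falciparum (2% hematocrit, 0.05% parasitemia final) for 96 hours, 37 C in 5% CO2. Growth inhibition scored as decreased luciferase luminescence.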
Potency is read from the fitted curve at half-maximal effect.

Row | Compound | Potency
1 | Cc1ccc2c(c1)C(c1ccc([N+](=O)[O-])cc1)=NNC(c1ccc(Br)cc1)=N2 | inconclusive: 18.5 µM [inhibitor, single point]
2 | COc1ccc(C)cc1NC(=O)C(NCC(O)c1ccccc1)c1ccccc1 (configuration not stated) | active: 10.4 µM
3 | CCOc1ccc2nc(SCC3CC3(Cl)Cl)[nH]c2c1 (configuration not stated) | inactive
4 | Cc1ccc2nc(N3CCN(C=O)CC3)nc(-c3ccccc3)c2c1 | inconclusive: 18.5 µM [inhibitor, single point]
5 | CCN(CC)Cc1c(C(=O)N/N=C/c2cccc(OCc3ccc(F)cc3)c2)nnn1-c1nonc1N | inactive
6 | COC(=O)c1ccc(NC(=O)COc2ccc3c(c2)OCO3)cc1 | inconclusive: 10.4 µM [inhibitor, single point]
7 | CCOc1ccccc1NC(=O)[C@@H](NC(=O)c1cccc(S(=O)(=O)N2CCOCC2)c1)C(C)C | inconclusive: 11.7 µM [inhibitor, partial curve]
8 | COc1ccc(CN2C(=O)c3cccnc3C2=O)cc1S(=O)(=O)N(C)c1ccc(C)cc1 | inactive
9 | COc1ccc(NC(=O)CCN2CCN(S(=O)(=O)c3ccc(Br)cc3)CC2)cc1 | inconclusive: 18.5 µM [inhibitor, single point]
10 | CN(C)c1cccc(C(=O)N(C)C2CCCN(Cc3ccccc3F)C2)c1 (configuration not stated) | active: 4.15 µM
11 | S=C(NCCN1CCCCC1)Nc1ccccc1 | inactive
12 | CC(NC(=O)CCl)c1ccccc1Br (configuration not stated) | active: 1.47 µM
13 | O=C(NC(=S)N(Cc1ccccc1)Cc1ccccc1)c1ccccc1F | inactive
14 | CCCc1nnc(NC(=O)CCC(=O)N2CCN(S(=O)(=O)c3ccc(C)cc3)CC2)s1 | inactive
15 | CC(C)=CC1C(C(=O)Nc2ccc(S(=O)(=O)N3CCOCC3)cc2)C1(C)C (configuration not stated) | inconclusive: 0.657 µM [inhibitor, partial curve, poor fit]
16 | COc1cnc(-c2ccccn2)nc1Sc1ccccc1Cl | inconclusive: 5.86 µM [inhibitor, partial curve, poor fit]
17 | Cc1ccccc1NC(=O)Cn1c(=O)sc2ccccc21 | inactive
18 | N#CC[C@H](Cc1ccccc1)N1CCN(CCc2ccccc2)CCC1=O | active: 3.7 µM
19 | CN(C)S(=O)(=O)c1ccc(NC(=O)N2CCN(c3cccc(C(F)(F)F)c3)CC2)cc1 | active: 11.7 µM
20 | CN(Cc1cccs1)C(=O)c1cc(S(=O)(=O)N2CCOCC2)ccc1N1CCCC1 | inactive
21 | N#C/C(=C\c1ccccc1O)C(=O)Nc1cccnc1 | inconclusive: 13.1 µM [inhibitor, single point]
22 | CCOC(=O)c1ccc(NC(=O)Nc2cc(C)cc(C)n2)cc1 | inactive
23 | CC(Oc1ccc2c(c1)c1ccnc3c4ccccc4c(=O)n2c13)C(=O)NCCN1CCOCC1 (configuration not stated) | active: 4.15 µM
24 | CCC(CC)C(=O)c1c[nH]c(C(=O)NCCCn2ccnc2)c1 | inactive

Structural class: the compounds so far with nitrogen in an aromatic ring (11)
Row | Compound | Potency
3 | CCOc1ccc2nc(SCC3CC3(Cl)Cl)[nH]c2c1 (configuration not stated) | inactive
4 | Cc1ccc2nc(N3CCN(C=O)CC3)nc(-c3ccccc3)c2c1 | inconclusive: 18.5 µM [inhibitor, single point]
5 | CCN(CC)Cc1c(C(=O)N/N=C/c2cccc(OCc3ccc(F)cc3)c2)nnn1-c1nonc1N | inactive
8 | COc1ccc(CN2C(=O)c3cccnc3C2=O)cc1S(=O)(=O)N(C)c1ccc(C)cc1 | inactive
14 | CCCc1nnc(NC(=O)CCC(=O)N2CCN(S(=O)(=O)c3ccc(C)cc3)CC2)s1 | inactive
16 | COc1cnc(-c2ccccn2)nc1Sc1ccccc1Cl | inconclusive: 5.86 µM [inhibitor, partial curve, poor fit]
17 | Cc1ccccc1NC(=O)Cn1c(=O)sc2ccccc21 | inactive
21 | N#C/C(=C\c1ccccc1O)C(=O)Nc1cccnc1 | inconclusive: 13.1 µM [inhibitor, single point]
22 | CCOC(=O)c1ccc(NC(=O)Nc2cc(C)cc(C)n2)cc1 | inactive
23 | CC(Oc1ccc2c(c1)c1ccnc3c4ccccc4c(=O)n2c13)C(=O)NCCN1CCOCC1 (configuration not stated) | active: 4.15 µM
24 | CCC(CC)C(=O)c1c[nH]c(C(=O)NCCCn2ccnc2)c1 | inactive

Some values from the results shown.
In Potency, CN(Cc1cccs1)C(=O)c1cc(S(=O)(=O)N2CCOCC2)ccc1N1CCCC1 shows inactive
In Potency, COC(=O)c1ccc(NC(=O)COc2ccc3c(c2)OCO3)cc1 shows inconclusive: 10.4 µM [inhibitor, single point]

(listing goes on)

Row | Compound | Potency
25 | COc1ccc(CN2CCC(n3nccc3NC(=O)C3CC3)CC2)c(Cl)c1OC | inactive
26 | COc1ccc(C2Nc3ccc4ccccc4c3-c3c2c(=O)oc2ccccc32)cc1 (configuration not stated) | inconclusive: 1.47 µM [inhibitor, full curve]
27 | CCn1c(SCC(=O)c2c[nH]c3ccccc23)nc2cc(S(=O)(=O)N3CCOCC3)ccc21 | active: 2.33 µM
28 | O=C(CCl)NC(Cc1c[nH]c2ccc(OCc3ccccc3)cc12)C(=O)O (configuration not stated) | inconclusive: 16.5 µM [inhibitor, partial curve, poor fit]
29 | CC1=NN(c2ccccc2)C(=O)/C1=C/c1c(O)n(-c2ccc(F)c(Cl)c2)[nH]c1=O | inconclusive: 4.65 µM [inhibitor, partial curve, poor fit]
30 | CCc1ccc(CNC(=O)CC2C(=O)NCCN2Cc2ccccc2F)nc1 (configuration not stated) | inconclusive: 10.4 µM [inhibitor, partial curve]
31 | CCOC(=O)c1[nH]c(C)c(C(=O)NCc2ccc(OC)cc2)c1C | inconclusive: 10.4 µM [inhibitor, single point]
32 | O=C(Oc1c(CN2CCOCC2)cc(Cl)c2cccnc12)c1ccccc1Br | active: 10.4 µM
33 | CCOc1ccc(-c2cccc(NS(=O)(=O)c3cc([N+](=O)[O-])ccc3Cl)c2)nn1 | inconclusive: 3.7 µM [inhibitor, partial curve]
34 | CCCn1nc(-c2nnc(-c3ccc(C)c(C)c3)o2)c2ccccc2c1=O | inactive
35 | COc1ccc(OC)c(-n2cnc3cc(C(=O)O)ccc32)c1 | inconclusive: 0.37 µM [inhibitor, partial curve, poor fit]
36 | Cc1ccc(-n2nc(C)c3c2OC(N)=C(C#N)C3c2ccc(C)o2)cc1 (configuration not stated) | inconclusive: 10.4 µM [inhibitor, single point]
37 | C=CCOc1cccc(C2/C(=C(/O)c3ccc(Cl)cc3)C(=O)C(=O)N2CCN2CCOCC2)c1 (configuration not stated) | inconclusive: 0.0029 µM [inhibitor, full curve, poor fit]
38 | CCCCc1ccc(-c2nc(NC(=O)C3C4CCC(O4)C3C(=O)O)sc2C)cc1 (configuration not stated) | inactive
39 | COCCN(CCOC)C(=O)CN1C(=O)NC2(CCCc3sccc32)C1=O (configuration not stated) | inactive
40 | CC(C)CN(CC(C)C)C1=N/C(=C\c2ccco2)C(=O)N1c1ccccc1 | inactive
41 | O=C(CCC1CCCC1)Nc1cc(C(F)(F)F)ccc1N1CCOCC1 | active: 13.1 µM
42 | O=c1[nH]c(=O)n(Cc2ccc(F)cc2)c(O)c1C=NCCCn1ccnc1 | inconclusive: 4.65 µM [inhibitor, partial curve]
43 | CCc1c(C)sc(NC(=O)c2ccco2)c1C#N | inactive
44 | COCc1nnc(NC(=O)c2ccc(OC)cc2OC)s1 | inactive
45 | COc1ccc(CCC(=O)N2CCN(S(=O)(=O)c3cccc(C(F)(F)F)c3)CC2)cc1OC | inconclusive: 1.65 µM [inhibitor, partial curve]
46 | O=C(Nc1ccc(Oc2ccccc2)nc1)C1CCCCN1Cc1ccc(OCCO)cc1 (configuration not stated) | inconclusive: 10.4 µM [inhibitor, single point]
47 | COc1ccc(S(=O)(=O)N2CCN(Cc3ccccc3)CC2)c(C)c1 | inconclusive: 11.7 µM [inhibitor, single point]
48 | O=C(NCC1CCCO1)c1cccc(NC(=O)c2ccccc2)c1 (configuration not stated) | inactive

Row | Compound | Potency
49 | CSc1ccccc1OCc1cc(C(=O)N2CCN(Cc3nccn3C)CC2)no1 | inconclusive: 11.7 µM [inhibitor, partial curve, poor fit]
50 | O=C(CN(C(=O)c1nsc(Cl)c1Cl)c1ccc(F)cc1)NC1CCCC1 | inconclusive: 18.5 µM [inhibitor, single point]
51 | COc1ccc(NC(=O)c2cc(-c3ccccc3Cl)on2)cc1 | inconclusive: 3.29 µM [inhibitor, single point]
52 | O=C1NC(=S)N(c2ccccc2)C(=O)C1C(c1ccncc1)C1C(=O)NC(=S)N(c2ccccc2)C1=O (configuration not stated) | inconclusive: 11.7 µM [inhibitor, single point]
53 | O=C(Nc1ccc(S(=O)(=O)N2CCCC2)cc1)c1ccccc1 | inactive
54 | C/C(O)=C\c1nc2ccccc2oc1=O | inconclusive: 0.165 µM [inhibitor, full curve, poor fit]
55 | Cc1cc(C)c(S(=O)(=O)N2CCCOC2CNC(=O)C(=O)NCCc2c[nH]c3ccccc23)c(C)c1 (configuration not stated) | inconclusive: 14.7 µM [inhibitor, partial curve, poor fit]
56 | CN(CCc1ccccc1)c1ccc([N+](=O)[O-])cn1 | inconclusive: 16.5 µM [inhibitor, single point]
57 | O=[N+]([O-])c1ccc(OCC(O)CN(C2CCCCC2)C2CCCCC2)cc1 (configuration not stated) | inconclusive: 8.28 µM [inhibitor, partial curve, poor fit]
58 | C/C(CC(=O)Nc1ccc(F)cc1F)=N\NC(=O)C(=O)N1CCCCC1 | inconclusive: 8.28 µM [inhibitor, partial curve, poor fit]
59 | CC(=O)Nc1sc2c(c1C(c1ccccn1)N1CCCC1)CCCC2 (configuration not stated) | active: 10.4 µM
60 | CCC1CCC2(CC1)NC(=O)N(CC(=O)Nc1ccc(OC)cc1)C2=O (configuration not stated) | inactive
61 | O=C(Nc1cccnc1Cl)c1cc([N+](=O)[O-])ccc1Cl | inconclusive: 16.5 µM [inhibitor, partial curve, poor fit]
62 | O=C1NCCCC1C(=O)N/N=C/c1cccc(Cl)c1 (configuration not stated) | inactive
63 | Cc1csc(SCC(=O)Nc2cc(S(=O)(=O)N3CCOCC3)ccc2N2CCOCC2)n1 | inconclusive: 13.1 µM [inhibitor, single point]
64 | COc1cc(/C=N/NC(=O)CN2CCOCC2)ccc1OCc1ccccc1 | inconclusive: 10.4 µM [inhibitor, partial curve, poor fit]
65 | Cc1ccc(C)c(NC2=NC3(CCCCC3)N=C(N)N2)c1 | inconclusive: 10.4 µM [inhibitor, single point]
66 | Cc1ccc(NC(=O)CNc2ccc(OC(C)C)cc2)c(C)c1 | active: 13.1 µM
67 | C(=N\N(c1ccccc1)c1ccccc1)/c1ccc(N2CCOCC2)s1 | active: 8.28 µM
68 | COc1ccc(Nc2nc(C)cc(C)c2C#N)cc1OC | inconclusive: 8.28 µM [inhibitor, partial curve]
69 | Cc1ncn(-c2ccc(C(=O)Oc3ccccc3)cn2)n1 | inconclusive: 0.0037 µM [inhibitor, full curve, poor fit]
70 | CC(NC(=O)CCc1ccccc1)c1ccc2c(c1)OCO2 (configuration not stated) | inconclusive: 8.28 µM [inhibitor, partial curve, poor fit]
71 | O=c1c2ccccc2cnn1Cc1ccc(Cl)c(Cl)c1 | inactive
72 | CS(=O)(=O)N1N=C(c2ccccc2)CC1c1cccs1 (configuration not stated) | inconclusive: 3.7 µM [inhibitor, partial curve, poor fit]
